Data: publication PMC8232280
These are yes or no findings as the source states them, for the method shown. Binding seen in cells or lysates may run through a third protein. Some binding calls cover weakened binding; strength is not graded here.

The chains behind the UniProt entries cited, without tags or fusion partners.
UniProt P19338: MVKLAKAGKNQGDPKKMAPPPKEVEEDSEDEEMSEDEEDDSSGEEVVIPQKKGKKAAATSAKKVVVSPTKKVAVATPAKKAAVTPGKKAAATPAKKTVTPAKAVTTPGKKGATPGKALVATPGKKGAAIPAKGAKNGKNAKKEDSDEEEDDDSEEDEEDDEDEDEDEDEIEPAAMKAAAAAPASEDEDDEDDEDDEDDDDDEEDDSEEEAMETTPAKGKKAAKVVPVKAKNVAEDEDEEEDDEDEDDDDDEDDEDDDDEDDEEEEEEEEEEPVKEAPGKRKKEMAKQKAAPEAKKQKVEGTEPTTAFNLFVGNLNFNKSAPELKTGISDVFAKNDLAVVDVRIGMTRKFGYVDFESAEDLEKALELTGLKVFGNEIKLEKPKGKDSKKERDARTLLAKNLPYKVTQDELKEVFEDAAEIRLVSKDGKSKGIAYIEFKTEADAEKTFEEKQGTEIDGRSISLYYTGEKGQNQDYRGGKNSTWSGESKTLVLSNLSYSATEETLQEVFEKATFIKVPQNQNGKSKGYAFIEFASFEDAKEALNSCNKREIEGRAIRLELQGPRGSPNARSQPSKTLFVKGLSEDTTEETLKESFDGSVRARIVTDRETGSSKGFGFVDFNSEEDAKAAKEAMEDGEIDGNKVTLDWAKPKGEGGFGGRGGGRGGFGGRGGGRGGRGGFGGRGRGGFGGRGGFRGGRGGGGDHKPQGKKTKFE
UniProt P35222: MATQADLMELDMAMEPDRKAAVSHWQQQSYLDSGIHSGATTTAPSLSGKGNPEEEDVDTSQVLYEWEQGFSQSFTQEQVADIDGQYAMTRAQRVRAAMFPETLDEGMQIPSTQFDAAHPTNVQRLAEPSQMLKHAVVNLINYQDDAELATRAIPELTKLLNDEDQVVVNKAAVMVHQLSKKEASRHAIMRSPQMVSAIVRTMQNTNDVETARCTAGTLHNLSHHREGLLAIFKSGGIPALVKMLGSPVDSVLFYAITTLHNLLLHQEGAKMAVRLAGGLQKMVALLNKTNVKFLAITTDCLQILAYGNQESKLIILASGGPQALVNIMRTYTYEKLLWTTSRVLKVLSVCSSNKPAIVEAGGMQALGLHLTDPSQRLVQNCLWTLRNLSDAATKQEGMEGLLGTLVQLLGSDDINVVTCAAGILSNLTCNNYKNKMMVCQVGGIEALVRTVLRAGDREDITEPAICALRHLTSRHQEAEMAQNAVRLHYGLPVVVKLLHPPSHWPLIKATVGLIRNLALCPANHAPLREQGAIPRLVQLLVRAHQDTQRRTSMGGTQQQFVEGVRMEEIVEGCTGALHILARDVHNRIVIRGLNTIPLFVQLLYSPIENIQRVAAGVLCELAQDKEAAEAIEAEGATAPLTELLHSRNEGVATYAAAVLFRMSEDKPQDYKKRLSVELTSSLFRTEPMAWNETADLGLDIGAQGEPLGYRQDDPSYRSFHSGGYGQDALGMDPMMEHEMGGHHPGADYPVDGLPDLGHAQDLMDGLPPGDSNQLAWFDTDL

Molecular target: Nucleolin (human (endogenous in MIA PaCa-2 and Panc-1)) (UniProt P19338)
Experiment: co-IP; nucleolin immunoprecipitated (5 µg rabbit anti-nucleolin, Abcam ab22758; control rabbit IgG) from 1 mg of the extranuclear fraction of MIA PaCa-2 and Panc-1 cells stimulated or not with Wnt3a-CM for 3 h; 1 h at 4 °C; protein G sepharose; Western blotting with anti-β-catenin

binding: binds
Substance: β-catenin (from UniProt P35222 1-781)
